Reference: PubChem BioAssay AID2284158 (EPA ToxCast)
This list was built around the results that the source calls inconclusive (neither active nor inactive); the mix of calls is not that of the screen. Where the call is inconclusive, the potency comes from a doubtful curve fit. Calls of active or inactive are those of the source. Rule for the calls: active = hit-call score of the fitted dose curve at least 0.9, where 1 is the maximum; inconclusive = response in the unintended direction; inactive = score below 0.9.

By UniProt entry, the sequences of proteins in these tests, tags left out.
UniProt P21728, whole entry, looked up: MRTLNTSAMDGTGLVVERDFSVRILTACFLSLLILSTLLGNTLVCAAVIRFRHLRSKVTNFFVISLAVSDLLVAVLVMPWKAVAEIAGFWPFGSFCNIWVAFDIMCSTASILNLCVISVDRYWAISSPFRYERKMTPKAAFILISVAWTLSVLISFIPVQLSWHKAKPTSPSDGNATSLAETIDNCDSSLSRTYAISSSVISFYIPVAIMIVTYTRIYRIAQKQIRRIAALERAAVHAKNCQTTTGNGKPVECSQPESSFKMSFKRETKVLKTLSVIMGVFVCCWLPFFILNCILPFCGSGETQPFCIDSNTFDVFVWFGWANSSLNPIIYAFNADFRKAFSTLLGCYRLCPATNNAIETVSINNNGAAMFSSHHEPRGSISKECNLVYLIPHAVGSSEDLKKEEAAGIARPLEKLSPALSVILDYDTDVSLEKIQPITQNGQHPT

biological target: D(1A) dopamine receptor (Homo sapiens) (UniProt P21728); assay: ERF_FR_GPCR_hDRD1: Eurofins (ERF) G Protein-Coupled Receptor (GPCR) Radioligand Binding LeadHunter Assay for human Dopamine Receptor D1 Antagonism, conducted at France lab site
Procedure: ERF_FR_GPCR_hDRD1 is a biochemical, single-readout assay that uses extracted gene-proteins in a cell-free assay. Measurements were taken 1 hour after chemical dosing in a 96-well plate. See D1 Human Dopamine GPCR Binding (Antagonist Radioligand) Assay, Cerep.ERF_FR_GPCR_hDRD1 is an assay component calculated from the ERF_FR_GPCR_hDRD1 assay. It is designed to measure radioligand binding using a type of binding reporter as detected by scintillation counting with radiometry technology.Data from the assay component ERF_FR_GPCR_hDRD1 was analyzed at the assay endpoint, ERF_FR_GPCR_hDRD1, in the positive analysis fitting direction relative to DMSO as the negative control and baseline of activity. Using a type of binding reporter, loss-of-signal activity can be used to understand changes in binding as they relate to gene DRD1. To generalize the intended target to other relatable targets, this assay endpoint is annotated to the gpcr intended target family, where the subfamily is dopamine.
Human cells are incubated for 60 minutes at room temprature with [3H]SCH 23390 ligand (0.3 nM) and SCH 23390 as control inhibitor.Test Sample Requirements: Minimum for 1) Screen: 60 ul of 10 mM stock -OR- 1 mg (pre-weighed) for 10 uM final testing. 2) Dose Response: 90 ul of 10 mM stock -OR- 1 mg (pre-weighed) for a top concentration at 10 uM.

SMILES	AC50	outcome
O=C(/C=C/c1ccc(O)cc1)CC(=O)/C=C/c1ccc(O)cc1	active: 1070 nM	–
COc1cc(CCC(=O)CC(=O)CCc2ccc(O)c(OC)c2)ccc1O	–	inactive
Oc1ccc(O)cc1	inconclusive: 0.3 nM	–
